Results are given in words; binding and its absence hold for the method and conditions named. Some binding calls cover weakened binding; strength is not graded here. For some of these results: Tags and fused reporters may be left off the sequences shown.
Tests used:
[1] = target: T1, HA-tagged endoglin-L (ENG) (UniProt P17813); experiment: competition patch/FRAP; live COS7 cells coexpressing HA-ENG (immobilised by IgG) and myc-VEGFR2 (Fab'-labelled, measured) with overexpressed untagged NRP1 as competitor
T1 sequence: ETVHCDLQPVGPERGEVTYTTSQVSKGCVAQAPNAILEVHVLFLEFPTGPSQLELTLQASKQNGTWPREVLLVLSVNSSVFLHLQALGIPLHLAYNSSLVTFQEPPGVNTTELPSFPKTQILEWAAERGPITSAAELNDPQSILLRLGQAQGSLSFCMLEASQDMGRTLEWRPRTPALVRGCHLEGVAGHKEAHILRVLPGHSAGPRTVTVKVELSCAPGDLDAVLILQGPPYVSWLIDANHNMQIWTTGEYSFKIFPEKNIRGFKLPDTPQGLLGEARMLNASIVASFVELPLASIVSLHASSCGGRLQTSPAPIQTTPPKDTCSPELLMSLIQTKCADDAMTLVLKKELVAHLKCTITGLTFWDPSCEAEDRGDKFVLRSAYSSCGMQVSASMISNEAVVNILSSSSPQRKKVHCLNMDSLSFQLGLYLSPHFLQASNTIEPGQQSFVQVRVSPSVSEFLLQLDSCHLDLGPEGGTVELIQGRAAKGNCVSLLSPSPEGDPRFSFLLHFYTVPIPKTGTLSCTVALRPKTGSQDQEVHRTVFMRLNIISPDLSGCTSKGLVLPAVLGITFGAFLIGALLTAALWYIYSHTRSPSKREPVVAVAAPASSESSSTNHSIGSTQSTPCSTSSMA

By UniProt entry, the sequences of proteins in these tests, tags left out. Residues count along the entry.
UniProt Q13705, residues 19-512: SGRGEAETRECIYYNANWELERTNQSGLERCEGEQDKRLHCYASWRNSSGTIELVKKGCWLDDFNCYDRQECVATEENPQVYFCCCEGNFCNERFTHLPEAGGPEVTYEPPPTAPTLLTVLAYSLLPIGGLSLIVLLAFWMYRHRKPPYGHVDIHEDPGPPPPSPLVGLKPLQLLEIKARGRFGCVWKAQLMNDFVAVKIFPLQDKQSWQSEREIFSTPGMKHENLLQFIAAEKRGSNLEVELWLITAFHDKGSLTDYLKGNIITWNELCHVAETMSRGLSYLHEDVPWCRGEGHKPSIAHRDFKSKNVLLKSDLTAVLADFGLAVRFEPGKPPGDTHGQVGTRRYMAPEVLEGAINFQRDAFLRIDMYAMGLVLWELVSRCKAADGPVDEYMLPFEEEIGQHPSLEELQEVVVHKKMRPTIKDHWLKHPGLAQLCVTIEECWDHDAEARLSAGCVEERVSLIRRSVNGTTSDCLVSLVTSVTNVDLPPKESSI
UniProt P35968, residues 20-1356: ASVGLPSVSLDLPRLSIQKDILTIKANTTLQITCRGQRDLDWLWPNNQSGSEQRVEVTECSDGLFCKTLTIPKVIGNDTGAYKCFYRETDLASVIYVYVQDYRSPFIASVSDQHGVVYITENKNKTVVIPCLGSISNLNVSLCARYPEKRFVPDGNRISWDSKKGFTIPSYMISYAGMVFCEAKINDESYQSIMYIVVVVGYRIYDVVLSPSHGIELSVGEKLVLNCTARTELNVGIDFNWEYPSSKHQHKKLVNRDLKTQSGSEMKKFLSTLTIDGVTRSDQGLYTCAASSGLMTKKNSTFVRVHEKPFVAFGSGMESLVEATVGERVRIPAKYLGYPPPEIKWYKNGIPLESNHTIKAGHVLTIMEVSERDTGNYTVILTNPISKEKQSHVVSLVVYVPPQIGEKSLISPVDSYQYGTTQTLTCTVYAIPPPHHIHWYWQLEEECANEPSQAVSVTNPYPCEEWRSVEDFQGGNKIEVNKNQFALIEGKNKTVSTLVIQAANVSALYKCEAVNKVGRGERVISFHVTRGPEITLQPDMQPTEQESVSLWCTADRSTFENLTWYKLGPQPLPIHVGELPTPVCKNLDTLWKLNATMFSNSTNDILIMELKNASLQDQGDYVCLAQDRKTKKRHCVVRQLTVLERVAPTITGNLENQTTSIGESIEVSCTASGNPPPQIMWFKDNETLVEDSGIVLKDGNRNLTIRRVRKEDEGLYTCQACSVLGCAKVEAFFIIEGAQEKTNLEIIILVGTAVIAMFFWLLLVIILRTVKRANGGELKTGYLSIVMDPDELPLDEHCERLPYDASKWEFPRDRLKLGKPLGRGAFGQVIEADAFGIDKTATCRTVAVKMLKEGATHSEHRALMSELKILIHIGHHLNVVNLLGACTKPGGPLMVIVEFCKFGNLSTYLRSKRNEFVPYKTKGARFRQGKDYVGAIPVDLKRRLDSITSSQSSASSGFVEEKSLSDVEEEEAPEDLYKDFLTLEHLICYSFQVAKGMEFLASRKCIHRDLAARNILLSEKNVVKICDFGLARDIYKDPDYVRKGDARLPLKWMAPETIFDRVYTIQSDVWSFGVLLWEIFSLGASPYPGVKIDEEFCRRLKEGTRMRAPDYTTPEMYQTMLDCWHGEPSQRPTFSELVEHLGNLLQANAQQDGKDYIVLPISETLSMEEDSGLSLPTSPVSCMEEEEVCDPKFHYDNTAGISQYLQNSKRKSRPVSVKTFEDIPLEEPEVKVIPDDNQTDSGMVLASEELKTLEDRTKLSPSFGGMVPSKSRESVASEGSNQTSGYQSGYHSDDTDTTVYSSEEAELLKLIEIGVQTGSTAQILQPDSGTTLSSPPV
UniProt O14786, residues 22-923: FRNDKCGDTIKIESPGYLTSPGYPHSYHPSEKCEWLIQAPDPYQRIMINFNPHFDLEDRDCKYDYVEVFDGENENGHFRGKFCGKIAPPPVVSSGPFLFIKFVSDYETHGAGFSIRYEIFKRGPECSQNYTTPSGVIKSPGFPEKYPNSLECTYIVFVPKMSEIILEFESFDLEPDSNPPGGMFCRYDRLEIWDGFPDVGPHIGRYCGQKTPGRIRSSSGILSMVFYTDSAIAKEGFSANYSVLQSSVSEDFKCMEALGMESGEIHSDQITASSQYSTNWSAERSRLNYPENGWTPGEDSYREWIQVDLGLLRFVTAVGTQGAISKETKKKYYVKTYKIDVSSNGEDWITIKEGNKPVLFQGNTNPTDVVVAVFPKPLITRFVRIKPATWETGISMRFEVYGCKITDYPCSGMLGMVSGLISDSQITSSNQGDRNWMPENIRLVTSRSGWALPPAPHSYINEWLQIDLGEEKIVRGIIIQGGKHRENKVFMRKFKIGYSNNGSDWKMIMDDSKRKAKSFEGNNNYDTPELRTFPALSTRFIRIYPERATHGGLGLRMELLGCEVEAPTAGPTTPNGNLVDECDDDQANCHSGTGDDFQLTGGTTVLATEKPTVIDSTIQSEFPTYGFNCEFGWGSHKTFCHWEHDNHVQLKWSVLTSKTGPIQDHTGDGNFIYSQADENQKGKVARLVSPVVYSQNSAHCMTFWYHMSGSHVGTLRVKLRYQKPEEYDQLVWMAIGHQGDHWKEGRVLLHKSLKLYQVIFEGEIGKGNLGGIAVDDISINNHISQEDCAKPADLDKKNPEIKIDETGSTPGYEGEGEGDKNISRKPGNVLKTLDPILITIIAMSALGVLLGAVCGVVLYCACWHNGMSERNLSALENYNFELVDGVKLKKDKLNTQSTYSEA

untagged endoglin (ENG) = target: T2, untagged endoglin (ENG) (UniProt P17813); experiment: patch/FRAP (IgG-mediated immobilisation of one receptor, FRAP of the coexpressed Fab'-labelled receptor); live COS7 cells coexpressing myc-NRP1, HA-VEGFR2 and untagged, uncrosslinked ENG as a third component; HA-VEGFR2 immobilised by IgG, Fab'-labelled myc-NRP1 measured; FRAP at 15 °C
T2 sequence: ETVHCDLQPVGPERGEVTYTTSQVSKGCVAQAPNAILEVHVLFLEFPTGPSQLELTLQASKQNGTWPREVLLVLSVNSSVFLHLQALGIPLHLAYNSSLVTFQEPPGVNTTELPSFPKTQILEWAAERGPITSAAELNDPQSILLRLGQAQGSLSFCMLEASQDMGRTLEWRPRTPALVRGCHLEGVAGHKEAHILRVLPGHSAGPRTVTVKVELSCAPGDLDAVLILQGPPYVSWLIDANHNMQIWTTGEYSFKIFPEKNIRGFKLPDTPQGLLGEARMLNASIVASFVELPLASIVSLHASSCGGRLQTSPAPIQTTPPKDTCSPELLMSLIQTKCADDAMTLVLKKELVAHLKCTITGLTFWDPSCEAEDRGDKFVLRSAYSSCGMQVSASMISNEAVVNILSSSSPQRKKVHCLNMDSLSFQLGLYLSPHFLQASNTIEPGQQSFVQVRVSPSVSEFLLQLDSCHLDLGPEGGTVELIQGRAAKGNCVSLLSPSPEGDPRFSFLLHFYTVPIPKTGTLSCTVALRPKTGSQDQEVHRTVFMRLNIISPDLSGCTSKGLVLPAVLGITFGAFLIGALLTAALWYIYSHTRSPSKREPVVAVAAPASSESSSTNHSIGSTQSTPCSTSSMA

[2] = target: N-terminally HA-tagged human activin receptor type 2B (ACVR2B) (human) (UniProt Q13705); experiment: patch/FRAP (IgG-mediated immobilisation of one receptor, FRAP of the coexpressed Fab'-labelled receptor); live COS7 cells coexpressing two receptors with different extracellular tags; one crosslinked and immobilised by IgG against its tag, the other labelled only by monovalent fluorescent Fab'; labelling at 4 °C in HBSS/HEPES/BSA, FRAP at 15 °C; values without ligand; VEGF-A (50 ng/ml) enhanced the complexes, BMP9 (5 ng/ml) did not
[3] = target: N-terminally HA-tagged human VEGFR2 (human) (UniProt P35968); experiment: patch/FRAP (IgG-mediated immobilisation of one receptor, FRAP of the coexpressed Fab'-labelled receptor); live COS7 cells coexpressing myc-NRP1, HA-VEGFR2 and untagged, uncrosslinked ENG as a third component; HA-VEGFR2 immobilised by IgG, Fab'-labelled myc-NRP1 measured; FRAP at 15 °C

Molecule: N-terminally myc-tagged human VEGFR2 (from UniProt P35968 20-1356) (receptor)
- binding [1]: binds

Molecule: myc-tagged human neuropilin 1 (NRP1) (from UniProt O14786 22-923) (receptor)
- binding (untagged endoglin (ENG)): binds
- binding [2]: no binding

B1: untagged endoglin (ENG) (receptor, UniProt P17813 26-658)
chain: ETVHCDLQPVGPERGEVTYTTSQVSKGCVAQAPNAILEVHVLFLEFPTGPSQLELTLQASKQNGTWPREVLLVLSVNSSVFLHLQALGIPLHLAYNSSLVTFQEPPGVNTTELPSFPKTQILEWAAERGPITSAAELNDPQSILLRLGQAQGSLSFCMLEASQDMGRTLEWRPRTPALVRGCHLEGVAGHKEAHILRVLPGHSAGPRTVTVKVELSCAPGDLDAVLILQGPPYVSWLIDANHNMQIWTTGEYSFKIFPEKNIRGFKLPDTPQGLLGEARMLNASIVASFVELPLASIVSLHASSCGGRLQTSPAPIQTTPPKDTCSPELLMSLIQTKCADDAMTLVLKKELVAHLKCTITGLTFWDPSCEAEDRGDKFVLRSAYSSCGMQVSASMISNEAVVNILSSSSPQRKKVHCLNMDSLSFQLGLYLSPHFLQASNTIEPGQQSFVQVRVSPSVSEFLLQLDSCHLDLGPEGGTVELIQGRAAKGNCVSLLSPSPEGDPRFSFLLHFYTVPIPKTGTLSCTVALRPKTGSQDQEVHRTVFMRLNIISPDLSGCTSKGLVLPAVLGITFGAFLIGALLTAALWYIYSHTRSPSKREPVVAVAAPASSESSSTNHSIGSTQSTPCSTSSMA
- binding [3]: binds
